Library screening results

Values are the deposited “Percent Effect”, in %. The record does not define 0% and 100%; most values in the screen are far below 50% and negative numbers occur (in some assays of this library far below -100). This is an unselected part of the compounds tested.

A: 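Whole-cell assay for inhibitors of Mycobacterium tuberculosis growth, labelled Cornell in the record; the read-out is not stated. The concentration is filed as 10 mM, unlikely as a test dose, so the dose is not known. Higher means stronger inhibition (inferred from two other growth screens of the library). Size under these conditions: about 53,000 compounds, about 900 of them at 50% or above in at least one test.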
B: 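Assay on Mycobacterium tuberculosis, filed only as a heat shock assay from Cornell; the read-out is not stated. The concentration is filed as 10 mM, unlikely as a test dose, so the dose is not known. Higher reads as stronger inhibition (inferred: compounds with an IC50 in retests scored well above the rest). About 69,000 compounds were tested under these conditions; 1.4% (about 930) showed 50% or more at least once.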

* Cc1cc(C)n2cc(CN3CCC(N4CCN(C)C4=O)CC3)nc2n1 : B: -0.2746%
* O=C1CC(c2ccc(C(=O)O)cc2)c2ncn(-c3ccc(Cl)cc3)c2N1 (stereo not drawn) : A: 35.58%; B: 16.74%
* Cc1cnn(CCC(=O)NC2CCc3nc(C)cn3C2)c1 (stereo not drawn) : A: 4.314%; B: -10.17%
* CN(C)C(=O)C1OC2(CCNCC2)c2ccccc21.O=C(O)C(F)(F)F (stereo not drawn) : A: -10.42%; B: -39.36%
* O=C(c1cccnc1-n1cncn1)N1CCN(C2CCCC2)CC1 : A: 22.23%; B: -20.61%
* Cc1nnc2n1CCN(Cc1ncc(-c3ccc(Cl)cc3)o1)C2 : B: -15.98%
* [H][C@@]12CS(=O)(=O)C[C@]1([H])N(C(=O)c1ccnc(N)c1)CCN2CCC : B: -4.34%
* Cc1nn(-c2ccccc2)nc1C(=O)NCC(c1ccsc1)N(C)C (stereo not drawn) : A: -12.69%; B: -1.423%
* FC(F)(F)c1ccccc1CCC1CCCN(Cc2cscn2)C1 (stereo not drawn) : A: -4.488%; B: 1.751%
* CCOc1ncccc1CNCc1c(C)nn(C)c1N(C)C : A: -13.13%; B: -13.99%
* Cc1nc(CN2CCCC(N(C)Cc3cscn3)C2)no1 (stereo not drawn) : B: 1.282%
* CCCc1nnc(N[C@H](C)c2ccc(OC)cc2)o1 : A: 31.39%; B: 32.03%
* Cc1[nH]c2ccccc2c1-c1ccnc(N[C@H](CO)CC(C)C)n1 : A: 20.1%; B: 1.513%
* CCN1CC2(CCN(C(=O)C(C)Oc3ccc(F)cc3F)CC2)OC1=O (stereo not drawn) : A: -12.04%; B: 16.1%
* Cc1cccc2c(=O)c(C(=O)N3CCCC4(CN(C)C(=O)O4)C3)c[nH]c12 (stereo not drawn) : B: -12.03%
* C[C@@H]1CCC[C@H](C)N1CC(=O)N1CCc2[nH]c(-c3ccccc3)nc2C1 : A: -19.89%; B: -24.46%
* Cc1nn(C)c(C)c1CCC(=O)N1CCc2sccc2C1 : A: -1.579%; B: -15.73%
* CC(=O)Nc1nc(C(=O)NC(C)c2cccnc2)cs1 (stereo not drawn) : A: -20.46%; B: 20.54%
* CC(C)c1nc(CN2CCCC2CN2CCCC2)cs1 (stereo not drawn) : A: -10.41%; B: 12.12%
* CC(Cn1cncn1)Nc1ccc(-c2nccn2C)nn1 (stereo not drawn) : A: 20.97%; B: 10.46%
* O=C(O)C(F)(F)F.O=C(O)C(F)(F)F.O=C(O)C(F)(F)F.O=C(O)C(F)(F)F.[H][C@@]12CCN(CCN(C)C)[C@@]1([H])CCN2Cc1cccnc1OC : A: 17.46%; B: -21.55%
* CN1CCOC(CNC(=O)C2(c3cccc(C(F)(F)F)c3)CCCC2)C1 (stereo not drawn) : A: 17.35%; B: -5.217%
* Cc1oc(C)c(C(=O)NCc2cccc(C(N)=O)c2)c1C : B: -13.1%
* CCOc1cccc(C(C)NCc2ccc(OC)c(OC)c2OC)c1 (stereo not drawn) : A: 23.44%; B: 0.7671%
* C[C@@H]1CN(Cc2ccc(C(F)(F)F)cc2F)CC[C@]1(C)O : B: -4.302%
* CCc1nc(CN2CCCN(C(=O)CC(C)OC)CC2)cs1 (stereo not drawn) : B: -17.92%

Some entries from above, unchanged:

{"compound": "O=C(O)C(F)(F)F.O=C(O)C(F)(F)F.O=C(O)C(F)(F)F.O=C(O)C(F)(F)F.[H][C@@]12CCN(CCN(C)C)[C@@]1([H])CCN2Cc1cccnc1OC", "A": 17.46, "B": -21.55}
{"compound": "CC(=O)Nc1nc(C(=O)NC(C)c2cccnc2)cs1", "stereo": "stereo not drawn", "A": -20.46, "B": 20.54}
{"compound": "CCN1CC2(CCN(C(=O)C(C)Oc3ccc(F)cc3F)CC2)OC1=O", "stereo": "stereo not drawn", "A": -12.04, "B": 16.1}

The values are deposited in ChEMBL (CHEMBL3988442, “University of Dundee, Small-Polar-MMV Screening Library” (2021)).